Reference: PubChem BioAssay AID1159578 (Peter MacCallum Cancer Centre, 2015)
Purpose: 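siRNA pools altering how lymphatic endothelial cells close a scratch wound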 (primary screen). Cells: human lymphatic endothelial cells. Reagent: siRNA pool against human genes, 40 nM. Time to read-out: 48 h after transfection. Measured: 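High-content imaging of dye-stained cells in a scratch assay measures filled wound area and nuclei per well; duplicate means given as ratio to mock and robust z-score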. Direction: migration robust z-score: higher = faster migration into the scratch; migration relative to mock: higher = more scratch area covered than mock; nuclei per well: higher = more cells in the well. Active means: 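Pools averaging fewer than 3300 nuclei are never called; remaining pools count as changed when migration robust z lies outside -2 to 2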. Calls: active = migration changed; inactive = no migration change, or too few cells.
The whole screen tested about 18,000 reagents; below is an unselected part. About 1,030 of them (5.7%) were called active. 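Inactive calls also include pools with fewer than 3300 nuclei, whose migration was not assessed.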 Raw values vary from plate to plate and are shown uncorrected. Reagent sequences are not shown.

Gene	migration robust z-score	migration class with cell-count check	migration relative to mock	nuclei per well, duplicate mean	call
GPR18	1.25	migration z between -2 and 2; enough cells	1.04	4406	inactive
ALG6	-0.52	migration z between -2 and 2; enough cells	0.7	5842	inactive
ZBTB47	0.24	migration z between -2 and 2; enough cells	0.96	6218	inactive
PRODH2	-0.2	migration z between -2 and 2; enough cells	0.76	4582	inactive
CBLL2	0.83	migration z between -2 and 2; enough cells	0.97	4848	inactive
ZFPM1	-2.06	migration z below -2; enough cells	0.35	4569	active
MME	0.46	migration z between -2 and 2; enough cells	0.9	5700	inactive
RNF111	0.77	migration z between -2 and 2; enough cells	0.96	6526	inactive
VAMP2	1.45	migration z between -2 and 2; enough cells	1.25	6992	inactive
PLAU	-0.1	migration z between -2 and 2; enough cells	0.78	5192	inactive
RAC2	-0.7	migration z between -2 and 2; enough cells	0.67	5586	inactive
FST	0.32	migration z between -2 and 2; enough cells	0.97	5744	inactive
TBX20	-0.54	migration z between -2 and 2; enough cells	0.74	5228	inactive
DIPK1C	2.4	migration z above 2; enough cells	1.5	6700	active
CCL2	-0.56	migration z between -2 and 2; enough cells	0.74	4798	inactive
FGFBP3	0.55	migration z between -2 and 2; enough cells	1.03	5820	inactive
DLD	0.34	migration z between -2 and 2; enough cells	0.87	6158	inactive
PEA15	0.96	migration z between -2 and 2; enough cells	0.99	4859	inactive
PPP1R35	-2.41	migration z below -2; enough cells	0.26	5403	active
SCRIB	-0.24	migration z between -2 and 2; enough cells	0.82	5616	inactive
B3GAT2	0.16	migration z between -2 and 2; enough cells	0.84	7021	inactive
TJP3	0.13	migration z between -2 and 2; enough cells	0.92	6798	inactive
NDUFA8	-2.54	migration z below -2; enough cells	0.32	3882	active
TTC8	-0.27	migration z between -2 and 2; enough cells	0.81	4676	inactive
PPP1R17	0.19	migration z between -2 and 2; enough cells	0.94	4951	inactive
WDR86	-0.08	migration z between -2 and 2; enough cells	0.86	5458	inactive
SGSM3	-0.22	migration z between -2 and 2; enough cells	0.83	6548	inactive
TPD52	-0.4	migration z between -2 and 2; enough cells	0.78	6426	inactive
ATL1	0.57	migration z between -2 and 2; enough cells	0.92	3983	inactive
ZNF7	1.03	migration z between -2 and 2; enough cells	1.16	5926	inactive
LINC01465	-3.38	under 3300 nuclei; migration not judged	0	2056	inactive
RDH16	-0.6	migration z between -2 and 2; enough cells	0.73	6780	inactive
SCO2	-0.5	migration z between -2 and 2; enough cells	0.76	6694	inactive
FOLR1	0.11	migration z between -2 and 2; enough cells	0.82	3734	inactive
CDCA5	-1.6	under 3300 nuclei; migration not judged	0.48	2924	inactive
PLB1	-3.84	migration z below -2; enough cells	0.06	4968	active
NUDT13	-0.75	migration z between -2 and 2; enough cells	0.66	4682	inactive
TASOR	0.81	migration z between -2 and 2; enough cells	1.1	6840	inactive
GOLGA8B	0.86	migration z between -2 and 2; enough cells	1.11	6250	inactive
PHOSPHO2	0.66	migration z between -2 and 2; enough cells	1.05	6480	inactive
TMEM255B	0.37	migration z between -2 and 2; enough cells	0.98	5260	inactive
ADAM20	-0.08	migration z between -2 and 2; enough cells	0.79	6317	inactive
CNP	0.16	migration z between -2 and 2; enough cells	0.84	4790	inactive
TGFB3	-1.25	migration z between -2 and 2; enough cells	0.56	4268	inactive
REEP6	0.51	migration z between -2 and 2; enough cells	1.02	6507	inactive
KRT38	-0.71	under 3300 nuclei; migration not judged	0.7	1890	inactive
YRDC	-0.82	under 3300 nuclei; migration not judged	0.68	3127	inactive
GNAL	-1.29	migration z between -2 and 2; enough cells	0.55	5112	inactive
TPGS1	-0.35	migration z between -2 and 2; enough cells	0.8	5393	inactive
BICD1	-0.86	migration z between -2 and 2; enough cells	0.66	5589	inactive
REEP1	1.77	migration z between -2 and 2; enough cells	1.34	6105	inactive
ADH1B	0.52	migration z between -2 and 2; enough cells	0.9	5647	inactive
ARHGEF19	-0.97	migration z between -2 and 2; enough cells	0.64	6614	inactive
SKP1	1.2	migration z between -2 and 2; enough cells	1.04	6036	inactive
IFNE	-2.54	migration z below -2; enough cells	0.23	4146	active
C22orf42	0.11	migration z between -2 and 2; enough cells	0.92	3722	inactive
KLRD1	-0.44	migration z between -2 and 2; enough cells	0.72	4712	inactive
ARHGAP25	1.54	migration z between -2 and 2; enough cells	1.28	6147	inactive
CCL17	-0.62	migration z between -2 and 2; enough cells	0.72	4068	inactive
LRP8	0.38	migration z between -2 and 2; enough cells	0.88	4466	inactive
SACK1G	0.7	migration z between -2 and 2; enough cells	1.06	5329	inactive
CTAGE6	0.19	migration z between -2 and 2; enough cells	0.94	4278	inactive
GNA15	-0.62	migration z between -2 and 2; enough cells	0.68	5219	inactive
NXPH4	0	migration z between -2 and 2; enough cells	0.88	5736	inactive
RWDD1	0.67	migration z between -2 and 2; enough cells	1.06	6306	inactive
ODAPH	-2.4	migration z below -2; enough cells	0.26	6112	active
PGK1	0.13	migration z between -2 and 2; enough cells	0.83	5070	inactive
BMI1	0.78	migration z between -2 and 2; enough cells	0.96	5718	inactive
MPP7	-0.38	migration z between -2 and 2; enough cells	0.73	5733	inactive
ACTA1	0.73	migration z between -2 and 2; enough cells	1.07	6197	inactive
TUBD1	-0.78	migration z between -2 and 2; enough cells	0.66	5587	inactive
FGFBP2	0.46	migration z between -2 and 2; enough cells	1	5117	inactive
SLC67A1	-0.16	migration z between -2 and 2; enough cells	0.78	5051	inactive

Reprinted from the entries so far, 11 entries:
Gene	migration robust z-score	migration class with cell-count check	migration relative to mock	nuclei per well, duplicate mean	call
ADH1B	0.52	migration z between -2 and 2; enough cells	0.9	5647	inactive
ARHGEF19	-0.97	migration z between -2 and 2; enough cells	0.64	6614	inactive
SKP1	1.2	migration z between -2 and 2; enough cells	1.04	6036	inactive
IFNE	-2.54	migration z below -2; enough cells	0.23	4146	active
C22orf42	0.11	migration z between -2 and 2; enough cells	0.92	3722	inactive
KLRD1	-0.44	migration z between -2 and 2; enough cells	0.72	4712	inactive
ARHGAP25	1.54	migration z between -2 and 2; enough cells	1.28	6147	inactive
CCL17	-0.62	migration z between -2 and 2; enough cells	0.72	4068	inactive
LRP8	0.38	migration z between -2 and 2; enough cells	0.88	4466	inactive
SACK1G	0.7	migration z between -2 and 2; enough cells	1.06	5329	inactive
CTAGE6	0.19	migration z between -2 and 2; enough cells	0.94	4278	inactive
